Patent US20250186538A1 (The General Hospital Corporation, priority 2022, published 2025)

Test: peptide made by a vendor (peptide synthesis; HBTU/DIPEA (solution-phase amidation))
Conditions: whole synthesis

GGNGDFEEIPEEYL
final purity (method not given): >98%

Where a sequence shows no end group, the ends are not given.
